Experimental data as given in US20150125515A1 (UNIVERSITY OF ROCHESTER, priority 2012, published 2015).
For some assays here: End groups of sequences in plain letters are not given here. Where no end group is shown, it is not given here.

Experiments:
[1] = Fmoc solid-phase peptide synthesis; H-Ser(OtBu)-HMPB NovaPEG resin or Wang-Ser(OtBu) resin; conditions: whole synthesis
[2] = FTIR spectroscopy, proportions of secondary structure; type: physicochemical
From the text: The DATK substitution in novel MB DATK_Red and MB DATK_Ox peptides in Table 10 also leads to improved adsorption activity relative to that previously reported for MB without the DATK substitution (for MB activity, see Walther et al, “Dynamic Surface activity of a Fully-Synthetic Phospholipase-Resistant Lipid/Peptide Lung Surfactant,” PLoS ONE, 2(10):1-10: e1039. (2007), which is hereby incorporated by reference in its entirety). […] At a peptide/lipid ratio of 1/10, Fourier transform infrared (FTIR) spectra of MB DATK_Red with surfactant lipids (5:3:2 weight ratio DPPC:POPC:POPG) in sodium phosphate buffered saline (10 mM PBS, pH 7.4) indicated high secondary conformations for loop-turn (32.8%) and alpha-helix (27.4%). […] The ability of the DATK substitution to increase SP-B peptide activity while also simplifying post-synthesis processing (folding/oxidation) enhances the potential pharmaceutical utility of these or related novel materials.
To assess the structural properties of selected SP-C peptides with and without an ion-lock, FTIR spectroscopic analyses were performed on a peptide without palmitoyl groups that represents the native sequence of SP-C (i.e., SP-Cff; SEQ ID NO: 396), a SP-C mimic with elevated surfactant activity (i.e., SP-C33; SEQ ID NO: 397) and a SP-C mimic with a salt bridge at Glu-20 and Lys-24 (i.e., SP-Css ion-lock; SEQ ID NO: 45). SP-C33 and SP-Css ion-lock were prepared as described earlier, and SP-Cff was also synthesized with standard techniques (Waring et al., “The Role of Charged Amphipathic Helices in the Structure and Function of Surfactant Protein B,”J Peptide Res 66:364-374 (2005); Walther et al., “Critical Structural and Functional Roles for the N-terminal Insertion Sequence in Surfactant Protein B Analogs,” PLoS One 5:e8672 (2010), each of which is hereby incorporated by reference in its entirety). FTIR spectra were obtained for the above SP-C mimics in surfactant lipids (5:3:2 weight ratio DPPC:POPC:POPG) in 10 mM PBS (pH 7.4) at a peptide/lipid ratio (P/L) of 1/10. Subsequent spectral deconvolutions were performed to determine the relative proportions of secondary structure, as described earlier (Walther et al., “Critical Structural and Functional Roles for the N-terminal Insertion Sequence in Surfactant Protein B Analogs,” PLoS One 5:e8672 (2010), which is hereby incorporated by reference in its entirety). FTIR spectra indicated predominant α-helix (i.e., ˜63%) for the SP-Css ion-lock in surfactant lipids, as opposed to the very high β-sheet (i.e., ˜59%) observed with the corresponding FTIR spectrum of its related parent SP-Cff without an ion-lock. Consequently, insertion of the ion-lock (i.e., Glu^−-20 and Lys^+-24) in the mid-section of the poly-Val sequence produced a remarkable conformation shift in the SP-C structure, from an ‘amyloid-like’ β-sheet profile to one that is primarily α-helix. […] In the present studies, FTIR spectra and functional measurements on SP-Css ion-lock in surfactant lipids indicated high α-helix content in correlation with its high in vitro surfactant activity (Table 12). […] The elevated α-helix and in vitro adsorption surface pressure noted for SP-Css ion-lock are similar to those of SP-C33, but here are achieved with a novel mechanism in which a single ion-lock (i.e., Glu-20, Lys-24) is incorporated into the transmembrane poly-Val core.

[3] = surfactant lipids 5:3:2 weight ratio DPPC:POPC:POPG, 10 mM PBS pH 7.4, peptide/lipid ratio 1/10
[4] = lipid-mimic 35% HFIP/65% sodium phosphate buffer, pH 7.4

Substance: CWLCRALIKRIQAMIDATKRMLPQLVCRLVLRCS
- final purity (method not given) [1]: better than 95%

Substance: CWLCRALIKRIQAMIDATKRMLPQLVCRLVLRCS (N-ethylmaleimide-blocked Cys1 and Cys33; MB_datk) [MB DATK_Red]
- FTIR secondary conformation, loop-turn [2, 3]: 32.8%
- FTIR secondary conformation, α-helix [2, 3]: 27.4%

Substance: GIPSSPVHLKRLLIVVVVVELIVKVIVGALLMGL (SP-C SS Ion Lock + L E20/K24) [SP-Css ion-lock]
- FTIR secondary conformation, α-helix [2, 3]: ~63%

Substance: GIPFFPVHLKRLLIVVVVVVLIVVVIVGALLMGL [SP-Cff]
- FTIR secondary conformation, β-sheet [2, 3]: ~59%

Substance: IPSSPVHLKRLKLLLLLLLLILLLILGALLMGL (SP-c33) [previously reported SP-C peptide (Almlen et al. 2007)]
- FTIR secondary conformation, α-helix [2, 3]: 67%

Substance: LGIPFFPSSLKRLLIILLL-NH2
- FTIR secondary conformation, α-helix [2, 4]: ~45%
- FTIR secondary conformation, β-sheet [2, 4]: ~10%
